At least one compound was matched to its structure with a doubt left.
Key:
[1] = system: MV4-11 AML cells; assay: Xenograft AML model with subcutaneously transplanted MV4-11 AML cells, alone and in combination with Venetoclax; assay type: in vivo, mouse; details: Aza-T-dCyd 2.0 mpk PO alone, Aza-T-dCyd 0.5 mpk with Venetoclax 50 mpk PO, Azacitidine 5.0 mpk IP alone
Text: 5.0 mpk of Azacitidine alone; or 2.5 mpk of Azacitidine in combination of 50 mpk of Venetoclax were intraperitoneal (IP) administered as a control.

[2] = system: MV4-11 AML cells; assay: Blood analysis (CBC sampling) in the systemic AML model
[3] = system: MV4-11 AML cells; assay: Systemic AML model, MV4-11 AML cells transplanted into the bone marrow (survival, clinical observations); details: one cycle; Aza-T-dCyd 2.0 mpk PO; decitabine and azacytidine at optimal doses as controls
[4] = Human PK parameter prediction by interspecies (allometric) scaling; details: using animal decitabine IV data
Text: PK parameters were scaled allometrically and used to extrapolate the PK in a 70 kg human. Details are described in the next section.
Simple allometric scaling, was used to predict CL, Vc, Vp, and Q. Y is PK parameter, BW is body weight, a is the allometric coefficient, and b is the allometric exponent. Final PK parameters, CL, Vc, Vp, and Q, were extrapolated based on the best-fit-lines (FIG. 8).
See Musther et al. (2014) European Journal of Pharmaceutical Sciences 57: 280-291.
For absorption rate constant (Ka) and bioavailability (F), animal parameters were used.

CC1(C)CCC(CN2CCN(c3ccc(C(=O)NS(=O)(=O)c4ccc(NCC5CCOCC5)c([N+](=O)[O-])c4)c(Oc4cnc5[nH]ccc5c4)c3)CC2)=C(c2ccc(Cl)cc2)C1 [Venetoclax]
anti-cancer effects (tumor volume) [1]: a limited level of tumor regression

Nc1ncn([C@@H]2O[C@H](CO)[C@@H](O)[C@H]2O)c(=O)n1 [azacytidine]
tumor burden ([2]; at the time of the second collection of blood samples): some of them showed a serious tumor burden
survival until collection of blood samples ([2]; treated groups of the AML model): subjects were alive until the first collection of blood samples
survival improvement [3]: limited level of survival improvement
anti-cancer effects (tumor volume) [1]: did not show the decrease of tumor volume

Nc1ncn([C@H]2C[C@H](O)[C@@H](CO)O2)c(=O)n1 [decitabine, reference compound]
predicted human CL [4]: approximately 7 L/h

From US12208112B2, “Composition for treating blood cancer using 4′-thio-5-Aza-2′-deoxycytidine and uses thereof” (Southern Research Institute, priority 2020, dated 2025)
